# Library screen at single concentrations

Source: ChEMBL document CHEMBL3988442, “University of Dundee, Small-Polar-MMV Screening Library” (2021).

Each number is a percent effect as filed. The controls that fix the scale are not given in the record; negative values are as filed. Compounds were drawn at random from those tested, without regard to their results. Two or more numbers in one place are separate tests of the same structure; such repeats can differ widely. A dash means the value is not listed here; it may have been measured.

A: 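Whole-parasite assay of Trypanosoma brucei over 72 hours; the read-out is not stated. Concentration: 30 µM. Higher reads as stronger inhibition (inferred: compounds with an IC50 in retests scored well above the rest). Values scatter widely below zero; nearly all retest evidence comes from the higher of the two concentrations used. About 64,000 compounds were tested under these conditions; 1.5% (about 940) showed 50% or more at least once.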
B: 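Cell assay of Leishmania donovani living inside macrophages; the read-out is not stated. Concentration: 30 µM. The record gives no direction; compounds that gave an IC50 in retests scored well above the rest, so higher reads as stronger inhibition. Size under these conditions: about 69,000 compounds, about 1,000 of them at 50% or above in at least one test.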

| # | structure | A | B |
|---|---|---|---|
| 1 | `COCc1cc(CNc2cnn(CC(F)F)c2)ccc1OC` | -38 | 23.45 |
| 2 | `Cc1cc(CN(C2CC2)C(C)C(C)C)no1` (centres undefined) | -20.11 | 3.392 |
| 3 | `COc1ncccc1CNC(=O)C1CC(=O)N(C)C1` (centres undefined) | -58.65 | 0.9462 |
| 4 | `CN(Cc1cccc2ncccc12)C(=O)CCn1ccc(=O)[nH]c1=O` | -0.6916 | 0.8784 |
| 5 | `O=C(O)C(F)(F)F.c1coc(CN2CCn3c(COCC4CC4)nnc3C2)c1` | -30.94 | 26.23 |
| 6 | `Cc1noc(CN2CC=C(c3c[nH]c4ncccc34)CC2)n1` | -5.135 | 16.16 |
| 7 | `Cc1nn(C)c(C)c1C(C)NCc1ccc(OC(C)C)cc1` (centres undefined) | -13.19 | 18.64 |
| 8 | `Cc1[nH]ncc1C(=O)N1CCCC(n2cncn2)C1` (centres undefined) | -17.45 | 1.227 |
| 9 | `CCCN1CCCC2(CCN(S(=O)(=O)c3cc(C)nn3CC)C2)C1=O` (centres undefined) | -17.43 | -3.957 |
| 10 | `O=C(CCCOCc1ccccc1)N1CCCC(c2ncc[nH]2)C1` (centres undefined) | -25.05 | 41.26 |
| 11 | `Cc1ccc(N2Cc3c(CN(C)C)nn(C)c3C2)nn1` | -27.18 | 0.4461 & -1.058 |
| 12 | `O=C(c1c[nH]c(=O)c(Cl)c1)N1CCc2ccccc2C1` | -67.09 | -7.86 |
| 13 | `CCN(CC)CC1CN(Cc2ccc(C)s2)Cc2nccn2C1.O=C(O)C(F)(F)F.O=C(O)C(F)(F)F` (centres undefined) | 5.494 | 24.34 |
| 14 | `CC(C)(C)c1cc(NC(=O)CN2CCn3c(nnc3C3CC3)C2)on1` | -7.995 | -14.03 |
| 15 | `Fc1cccnc1N1CCOCC2(CCCN(c3nncs3)C2)C1.O=C(O)C(F)(F)F` (centres undefined) | 36.62 | 31.14 |
| 16 | `CCn1cnnc1C1CCN(C(=O)COc2ccc(Cl)cc2)CC1` | 9.215 | 6.53 |
| 17 | `CN(CCN1CCCCCC1)C(=O)c1c(O)cccc1O` | -16.42 | 5.853 |
| 18 | `COc1cccc(S(=O)(=O)N2CCC(O)(CN(C)C)C2)c1` (centres undefined) | 30.21 | 23.49 |
| 19 | `Cc1nnsc1CN1CC[C@@](O)(C2CCC2)[C@H](C)C1` | -69.21 | 38.84 |
| 20 | `Cc1ccnc(CNC(=O)C2CC(=O)N(CCN(C)C)C2)c1` (centres undefined) | 6.221 | 7.855 |
| 21 | `O=C(CCc1nc(Cl)n[nH]1)NC1CCCN(CC2CCCCC2)C1` (centres undefined) | -2.385 | 0.8029 |
| 22 | `O=C(CN1CCC(c2ccnn2CCO)CC1)NCc1ccco1` | - | 10.75 |
| 23 | `CCc1ncc2c(n1)CN(Cc1cccc3c1OCCO3)CC2` | -15.38 | -15.27 |
| 24 | `CC(C)C(C(=O)N1CCN(c2nccs2)CC1)n1cncn1` (centres undefined) | -25.55 | 35.4 |
| 25 | `Cc1cccnc1NC(=O)NCc1cccnc1OC(C)C` | -6.781 | 21.91 |
| 26 | `COCCN1CCC2(COCc3cnc(N(C)C)nc32)C1.O=C(O)C(F)(F)F` (centres undefined) | -1.177 | 26.02 |
| 27 | `CC(C)C(=O)N1CCC(C)(c2cc[nH]n2)CC1` | - | -15.22 |
| 28 | `O=C(NCC1(O)CCCC1)c1ccc2nsnc2c1` | -16.58 | 28.37 |
| 29 | `O=C(O)C(F)(F)F.[H][C@]12CN(c3ncccn3)C[C@@]1(C(=O)O)CCCN(C1CCOC1)C2` (some centres undefined) | -67.87 | 6.803 |
| 30 | `CS(=O)(=O)NCCC(=O)NC1CCc2nccn2C1` (centres undefined) | -15.76 | -0.7605 |
| 31 | `O=C(c1ccccn1)N1CCc2ncnc(N3CCOCC3)c2CC1` | -20.03 | 7.958 |
| 32 | `O=C(NCCO)NC(c1ccccc1)c1ccc2c(c1)CCCO2` (centres undefined) | - | 10.66 |
| 33 | `Cn1ccnc1CN(CCO)C(=O)C1CCN(C(=O)C2CC2)CC1` | -34.44 | 25.98 |
| 34 | `CCc1nc(C)ncc1C(=O)N1CC(C)CN(C)c2ccccc21` (centres undefined) | -10.91 | 16.6 |
| 35 | `Cc1cccc(C2(CNC(=O)C(C)S(C)(=O)=O)CCCC2)c1` (centres undefined) | 1.954 | 0.2872 |
| 36 | `O=C1CC2(CCCC2)CC(=O)N1Cc1nc2ncccn2n1` | -8.43 | 17.63 |
| 37 | `CN(C)C(=O)C1CCCN1CCCNC(=O)c1cccc2[nH]ncc12` (centres undefined) | -6.071 | -6.192 |
| 38 | `CC(C)c1ccc(NS(=O)(=O)CC2=NC(=O)n3cccc3C2=O)cc1` | -31.24 | 0.751 |
| 39 | `CN(c1nc(Cn2cc(Br)ccc2=O)cs1)C1CC1` | -30.43 | 26.37 |
| 40 | `COc1cccc2c1ccn2CC(=O)N[C@@H](CCSC)C(=O)O` | 43.04 | 5.03 |
| 41 | `COc1ccc(S(=O)(=O)NCCC(O)c2cc(C)oc2C)c(C)c1` (centres undefined) | 7.318 | 14.48 & 8.804 |
| 42 | `[H][C@@]12CCN(Cc3c(C)noc3C)C[C@@]1([H])O[C@H](c1nccs1)C2` | - | 15.1 |
| 43 | `O=S1(=O)CCC(c2nnc(-c3cnc4onc(C5CCCC5)c4c3)o2)C1` (centres undefined) | -47.7 | -7.27 |
| 44 | `Cc1nn2c(NCC(N)=O)cc(-c3ccccc3)nc2c1C` | -89.79 | -4.089 |
| 45 | `CC(C)c1noc(C2CCCN2S(=O)(=O)Cc2ccc(F)cc2)n1` (centres undefined) | -18.52 | -9.294 |
| 46 | `Cc1ncc(S(=O)(=O)Nc2ccnn2C(C)C)[nH]1` | -1.499 | -0.0227 |
| 47 | `CCc1ccc(CN2CCNC(C(=O)N3CCN(C)CC3)C2)o1` (centres undefined) | -1.272 | 9.411 |
| 48 | `CCS(=O)(=O)N1CCc2c(cnc(-c3cccnc3)c2C(=O)O)C1` | 21.41 | 13.52 |
| 49 | `COc1cccc(-c2n[nH]c3c2CN(C(=O)c2cc(C)n(C)n2)CC3)c1` | -12.24 | 8.957 |
| 50 | `O=C(Cc1cccs1)NCC1(O)CCc2ccccc2C1` (centres undefined) | -32.73 | 12.11 |
| 51 | `CCc1nc(CN(C)C(=O)c2ccc(OCCCOC)nc2)cs1` | -31.83 | 0.7392 |
| 52 | `CCCc1nc(NCCc2ccccc2)c2c(n1)c(C)nn2CC` | 99.68 | 98.89 |
| 53 | `COCC(=O)N1CC2(CCN(c3ccccc3)C2)C1` | -27.83 | -20.21 |
| 54 | `O=C(Nc1nncs1)NC1CCc2ccccc21` (centres undefined) | 4.751 | -4.44 |
| 55 | `O=C(NC1CC(=O)N(C2Cc3ccccc3C2)C1)c1csnn1` (centres undefined) | -36.68 | 2.625 |
| 56 | `Cc1nn(C)c(Cl)c1C1CCCN1CC(=O)Nc1cccnc1` (centres undefined) | -15.96 | 2.278 |
| 57 | `Cc1ccccc1OCCCC(=O)NCc1ccnc(O)c1` | -48.31 | 16.27 |
| 58 | `CCc1cc(N2CCNCC2)n2nc(C)c(C)c2n1` | -35.58 | -16.95 |
| 59 | `CCc1noc(C(C)N(C)CC(=O)Nc2c(C)cccc2C)n1` (centres undefined) | -74.17 | 25.88 |

Repeated from the top, 7 entries:

Result for COCc1cc(CNc2cnn(CC(F)F)c2)ccc1OC was A: -38%; B: 23.45%.
Result for Cc1cc(CN(C2CC2)C(C)C(C)C)no1 (centres undefined) was A: -20.11%; B: 3.392%.
Result for COc1ncccc1CNC(=O)C1CC(=O)N(C)C1 (centres undefined) was A: -58.65%; B: 0.9462%.
Result for CN(Cc1cccc2ncccc12)C(=O)CCn1ccc(=O)[nH]c1=O was A: -0.6916%; B: 0.8784%.
Result for O=C(O)C(F)(F)F.c1coc(CN2CCn3c(COCC4CC4)nnc3C2)c1 was A: -30.94%; B: 26.23%.
Result for Cc1noc(CN2CC=C(c3c[nH]c4ncccc34)CC2)n1 was A: -5.135%; B: 16.16%.
Result for Cc1nn(C)c(C)c1C(C)NCc1ccc(OC(C)C)cc1 (centres undefined) was A: -13.19%; B: 18.64%.